Experimental findings from PubChem BioAssay AID1347426 (Functional Genomics Laboratory (NCATS/FGL), 2020) are described below.

Among all 31,000 sequences or so, about 1,400 (4.5%) were called active.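 How the source made its calls: active means median seed-adjusted z-score above 1 or below -1; inactive means the rest.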 Some of the results follow.

This test in a line: Novel Modifiers of Survival Motor Neuron (SMN) Protein: Gene Identification via Genome-wide siRNA Screen.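 Further: luminescence tracks full-length SMN protein made from the SMN2 reporter.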 The note with it: HEK293T SMN2-luciferase reporter, siRNA knockdown, 72 h; actives lie on both sides. In a few lines: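 Genome-wide siRNA screen (10418 genes, 3 siRNAs each, 1 pmol per well) by reverse transfection in HEK293T cells stably carrying an SMN2-luciferase reporter; luminescence after 72 hours, normalized to negative-control siRNA, log10-transformed, MAD-scored.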
As to AAGCCUACCAGGUCAAGUATT against EVI5L, the median seed-adjusted z-score is inactive: 0.0497.

As for GGACUUUGCCUAUAGGUCATT against ZNF445, the median seed-adjusted z-score is inactive: -0.0752.

As to GGACCUUUAUCUUGUCGAATT against TMPRSS7, the median seed-adjusted z-score was inactive: 0.0269.

Consider GCAGAAAUGCUUUCUAACATT against MAPK1, for which the median seed-adjusted z-score was inactive: 0.

Take UGCCAUUGCUGAAAUCCGATT against DUSP23: the median seed-adjusted z-score was inactive: -0.537.

In the case of CCAGAUGGAUGUACACUGUTT against PDE6C, the median seed-adjusted z-score is inactive: 0.205.

For GAAUAUGGGUUGGCCUAUATT against ZNF655, the median seed-adjusted z-score was inactive: -0.156.

Consider GGAAUACUUCUGAGGGUAATT against ZNF561, for which the median seed-adjusted z-score was inactive: -0.00904.

In the case of CAUGCACUCCGCUUACAAATT against SNRNP70, the median seed-adjusted z-score was inactive: -0.405.

Take CCUCUGAACUGAGCUUAAATT against NANOS1: the median seed-adjusted z-score was inactive: 0.369.

Take GGAGUGUGCUUGUUUUCGATT against RRAGA: the median seed-adjusted z-score is inactive: 0.511.

Take CUUUAUUUAUGACGACUUUTT against ZFP36: the median seed-adjusted z-score is inactive: 0.106.

Regarding AAGAAGAAGUGGACACUGATT against FGFRL1, the median seed-adjusted z-score is inactive: -0.111.

As to GAAAUACAGCUUAUGCAUATT against PTH, the median seed-adjusted z-score was inactive: 0.

CCACUUACCUGCCCAUAUATT against SEC63: the median seed-adjusted z-score was inactive: -0.159.

As for GGAAGGAUGUGAUCCAGUATT against PREP, the median seed-adjusted z-score is inactive: 0.0883.

On to GGAUAAGCAUGGGACAAGATT against OTC, for which the median seed-adjusted z-score was inactive: 0.496.

Regarding CAGUGUAUCUGAACCUAUUTT against EFTUD1, the median seed-adjusted z-score was active: -1.39.

As for GUUUGACACUGGACUCUCATT against CRYAB, the median seed-adjusted z-score is inactive: 0.354.

In the case of GUCCAUUGGUGUGAGUGCATT against HYAL3, the median seed-adjusted z-score is inactive: 0.

Take GGAGAAUUGACUACGCUUATT against KTN1: the median seed-adjusted z-score is inactive: -0.233.

Regarding GGGCUGGAAUUUUAAGCAATT against ALDH1L2, the median seed-adjusted z-score is inactive: 0.

For the sequence CAGUGACCUGCUUCCCUCATT against PROP1, the median seed-adjusted z-score was inactive: 0.303.

On to ACAUCAUGUUGGACUGUGATT against B4GALT7, for which the median seed-adjusted z-score was inactive: -0.00294.

In the case of CCAAUACAGUGGACAGUUATT against EMR1, the median seed-adjusted z-score is inactive: 0.255.

In the case of GCAUUACAGUACUUACGUATT against BTAF1, the median seed-adjusted z-score is active: -1.19.

On to GGAGCUUCAACUACAUUGATT against FAM12B, for which the median seed-adjusted z-score is inactive: 0.312.

For the sequence GCAAUGUAUAUGUUCAGUATT against ZRSR2, the median seed-adjusted z-score is inactive: 0.0222.

With UGGUUGGUUUUAUACUAUATT against MYF6, the median seed-adjusted z-score was inactive: -0.0315.

Consider GAUUUGCAUUGCAAUACAATT against MAL2, for which the median seed-adjusted z-score was inactive: -0.604.

For the sequence GGCUGAUUUAUCUUCGAUATT against SLC7A11, the median seed-adjusted z-score was inactive: -0.182.

For CGCAACGAGUUACAGAGGATT against GRINL1A, the median seed-adjusted z-score is inactive: 0.

Take CCAAUGCUAAUCUAUCUAATT against MYH8: the median seed-adjusted z-score is inactive: 0.0648.

For the sequence GUUUCUCAGUACUUCCAGATT against APOA2, the median seed-adjusted z-score was inactive: -0.297.

As for AGCUCUAUGUUUUCGUUAATT against DUSP22, the median seed-adjusted z-score is inactive: 0.

On to GCUCCGCAAGUGUAGAUGATT against ZNF431, for which the median seed-adjusted z-score was inactive: 0.00537.

As to GGCACGAAGACAUCGAUAATT against GCK, the median seed-adjusted z-score was inactive: -0.286.

In the case of GGUACGAGCGAAACAUUGATT against F2, the median seed-adjusted z-score was inactive: 0.286.

Take CGAGCACACUAGUGAGUUUTT against MYBL1: the median seed-adjusted z-score is inactive: 0.344.

For GGAAUAUCACAAUACACUGTT against FCGR1B, the median seed-adjusted z-score is inactive: 0.2.

CCAUGAACAAGUUACGGCATT against NUMBL: the median seed-adjusted z-score is inactive: -0.139.

As for GAGGAUCCAUGAUACAUGUTT against RHAG, the median seed-adjusted z-score was inactive: -0.212.

For GAAUCUGGAUAGUAUGCUUTT against BMPR1A, the median seed-adjusted z-score is inactive: 0.797.

Take CCACUAAGAUGUACAUGAATT against DHX37: the median seed-adjusted z-score was inactive: -0.126.

Take CUAUGCGUUUGAAACCAAATT against GRK1: the median seed-adjusted z-score was inactive: 0.0807.

As for GGAACUCGUGCAUCUCCAATT against CD93, the median seed-adjusted z-score was inactive: -0.0879.

On to AGAUCCACCUCUCAACGCATT against CADM3, for which the median seed-adjusted z-score was inactive: 0.

On to GCGUGUAUCUGGUACGUCATT against KCNH8, for which the median seed-adjusted z-score is inactive: 0.

As to GGAGGACAAUCAGCAAGGATT against SPOCK2, the median seed-adjusted z-score is inactive: 0.967.

Turning to GGUUCGGUCUGAAAGGUGUTT against TIMP2, the median seed-adjusted z-score was inactive: 0.0444.

For GCAGAAUACAUUCACGCUATT against CD22, the median seed-adjusted z-score was inactive: -0.448.

For the sequence AGUACAUCGCGGAUCUGUATT against RCN3, the median seed-adjusted z-score is active: -2.44.

As to AGUUCGACCCUGACCUGGATT against TH, the median seed-adjusted z-score is inactive: -0.878.

Regarding GCUGAAGUCCUGAAGGUCATT against PPP1R1B, the median seed-adjusted z-score is inactive: -0.354.

In the case of CGUCUAAGCUGAGGAAACATT against ZNF584, the median seed-adjusted z-score is inactive: 0.172.

Consider GACCAAAAGUGGAACUCCATT against PTPN23, for which the median seed-adjusted z-score was inactive: -0.0473.

In the case of GUAUCUACUUGAUUAACCATT against SLC22A15, the median seed-adjusted z-score was inactive: -0.137.

Take CCACGAAACGUGAAGUUCATT against CDH5: the median seed-adjusted z-score was inactive: -0.557.

Regarding GCACGCACAUGUCAUUGAATT against ZDHHC1, the median seed-adjusted z-score was inactive: 0.

Regarding GUAGAACUCUCGUAUGCUATT against HNRNPU, the median seed-adjusted z-score is inactive: 0.431.

On to GCAUGCCUGAACUACAUAATT against RASSF1, for which the median seed-adjusted z-score is inactive: -0.719.

Turning to GGAUACAAUUAUAGCUACATT against FCN2, the median seed-adjusted z-score is inactive: 0.281.

With GGGAGAUCCUUCGUCAAAATT against TRPV5, the median seed-adjusted z-score is inactive: 0.0879.

As to CCACGGUGCUUGUAUAACUTT against LNX1, the median seed-adjusted z-score was inactive: -0.463.

In the case of CAGUGAUCUUGGGACAUGATT against RCADH5, the median seed-adjusted z-score is inactive: -0.158.

On to CACUUAGUAAUGACAAUUATT against SLC17A6, for which the median seed-adjusted z-score was inactive: 0.339.

On to AGGCCGUUCUGUGCGAGAATT against DHDH, for which the median seed-adjusted z-score was inactive: 0.522.

For CGGUGAAGCCCAAUGCAAATT against LGALS3, the median seed-adjusted z-score is inactive: 0.14.

For CGGUCAUCAUUGUGGGUAATT against OSGIN1, the median seed-adjusted z-score was inactive: -0.131.

For GAACCAUCUCAAUACUAUUTT against DACH2, the median seed-adjusted z-score was inactive: -0.00102.

As to CAUCAGCACUAGCACCUCATT against ZNF213, the median seed-adjusted z-score is active: 1.37.

Turning to GCAUAUUCAGACACUUAUUTT against GCA, the median seed-adjusted z-score is inactive: -0.162.

Consider GCUACACUCAACUACCUGATT against ADCY5, for which the median seed-adjusted z-score was inactive: -0.123.

For the sequence GGAAUGUCACGGCUAAUCATT against PITPNM3, the median seed-adjusted z-score was inactive: -0.0378.

As for GGUGCGGCCCUAUUACUUUTT against RPUSD2, the median seed-adjusted z-score was inactive: -0.215.

CCACUUGUCUCCUAACAAATT against KCNB1: the median seed-adjusted z-score was inactive: 0.0206.

Turning to CCGCAAAUUUUAACCUUGUTT against IL1R2, the median seed-adjusted z-score is inactive: 0.429.

Turning to GCAUCUUGGAUGUCCUACATT against DOCK3, the median seed-adjusted z-score was inactive: 0.51.

In the case of GGACACUAUAAGAAAGGAATT against FNTA, the median seed-adjusted z-score was active: 1.04.

For the sequence GGAGGAUUUUGACCGACUUTT against RHOV, the median seed-adjusted z-score is inactive: -0.326.

On to AGAGGAAGCAUGAAAUGGATT against SIGLEC8, for which the median seed-adjusted z-score was inactive: 0.0069.

Regarding GAAGGUUAUGUUAACAGUATT against NAT11, the median seed-adjusted z-score is inactive: 0.37.

GGAGGAGAUAGGCACUGAATT against TIGD3: the median seed-adjusted z-score was inactive: 0.486.

With GCCUUAUCAGGACCUCUGATT against RAB43, the median seed-adjusted z-score is inactive: -0.0845.

AGUUGUACCUGAUGAGGUATT against FLAD1: the median seed-adjusted z-score was inactive: 0.367.

With UCCUAACCUCAGAAACUGATT against CAPS, the median seed-adjusted z-score is active: -1.25.

In the case of CCACUGCACCGACAUAAAATT against HABP2, the median seed-adjusted z-score was inactive: -0.141.

Turning to CAGCCCGUUUUGAAGGGUATT against CRIP3, the median seed-adjusted z-score was active: 1.7.

For CACAUACCUUCGGCCCAGATT against CEBPE, the median seed-adjusted z-score was inactive: -0.259.

As to GCUACUUCUCCUGCACUUUTT against KRT81, the median seed-adjusted z-score is inactive: -0.0955.

Consider CAAUUAGAUGAGAUGAAUUTT against SULT1E1, for which the median seed-adjusted z-score is inactive: 0.509.

With CAGGGUCUAUGGUACCGUUTT against UBE3C, the median seed-adjusted z-score was inactive: 0.0341.

Regarding CAGUGCACAGUGAAACCAATT against ADAM11, the median seed-adjusted z-score is inactive: 0.102.

Turning to GACUCAUACGAGCGCAUUATT against SEMA4F, the median seed-adjusted z-score is inactive: 0.139.

Take CGUACUCAUUUGCAAGAUATT against ALKBH8: the median seed-adjusted z-score was inactive: -0.487.

As for AGAAAGCAAUUGGAUCACATT against NOX1, the median seed-adjusted z-score was inactive: -0.221.

As to CGAAAGAGGCAAAUAUGAATT against CBX3, the median seed-adjusted z-score was inactive: -0.893.

Turning to GGAAGGACGACAACACUGATT against GPA33, the median seed-adjusted z-score is inactive: 0.138.

Regarding GGUUUUUAAUCGCAAAGCATT against ZNF525, the median seed-adjusted z-score was inactive: 0.134.

For CCUCAAUACACGAUAAGAATT against GZF1, the median seed-adjusted z-score was inactive: 0.286.

GAAUGCAGGGAGAAACUUATT against TRIM64: the median seed-adjusted z-score was inactive: -0.024.

Take AUACAGUUGUUGGAAAAGATT against IDS: the median seed-adjusted z-score is inactive: -0.074.

In the case of CGUUUAAAGAAAAUCGAAATT against TXNDC10, the median seed-adjusted z-score was inactive: -0.0542.

For the sequence GCCUGUUGGUUCUCACGCUTT against PCDHA9, the median seed-adjusted z-score is inactive: -0.295.

For the sequence CACUAGGAAUCACACCGUUTT against TINAG, the median seed-adjusted z-score was inactive: 0.374.

With GACCUCUCCUUACUUAUUATT against DNAJC4, the median seed-adjusted z-score was inactive: 0.566.

Regarding GCAAAACCGGAAGACCUUATT against VAPB, the median seed-adjusted z-score is inactive: 0.254.

For GCACUUACAGCAUCCAUGUTT against SEZ6L2, the median seed-adjusted z-score is inactive: -0.331.
